Earlier results, collected in US10878939B2, “Methods and compositions for personalized pain management” (Children's Hospital Medical Center, priority 2014, dated 2020).

Tested on: OCT1
Conditions: cited from earlier work

CN1CC[C@]23c4c5ccc(O)c4O[C@H]2[C@@H](O)C=C[C@H]3[C@H]1C5 [morphine]
reduction of uptake rate when loss-of-function OCT1 polymorphisms were present (hepatocytes over-expressing OCT1): 75-100% | transporter-dependent uptake into hepatocytes, share of the total uptake (in vitro studies): about 60%
